Laboratory results: US8318771B2, “Method of treatment of nephrogenic diabetes insipidus” (Universita' Degli Studi di Bari, priority 2010, dated 2012)
At least one compound was matched to its structure with a doubt left.

Assays:
[1] = tested on: AQP2; experiment: In vivo AQP2 immunolocalization in kidney sections of mice after intravenous fluvastatin; details: adult male mice C56BL6, 10 mg/Kg intravenous via the caudal vein, 6 hours after infusion, versus control
[2] = tested on: MCD4 cells; experiment: AQP2 localisation on the apical membrane of MCD4 renal cells in culture; format: cell-based
Experimental: The MCD4 cells, which are in culture and derive from main cells of the renal collecting duct, were treated experimentally with lovastatin. In the cell model, as in the renal tubule in vivo, the presence of AQP2 on the membrane depends on the presence of vasopressin.
In MCD4 cells in the absence of lovastatin in the culture medium (-Lovastatin) and in control (ctr) conditions, the AQP2 is stored in intracellular vesicles. […] The FK mimes the effect of the vasopressin in in vitro experiments. The same phenomenon occurs in the tubule in vivo following release into the circulation of vasopressin. […] The lovastatin therefore mimes the effect of the FK or the stimulation with vasopressin. […] It is possible to quantize the effect of the treatment with lovastatin in terms of accumulation of AQP2 on the apical membrane by means of surface protein biotinylation experiments.
In vitro tests performed in MCD4 renal cells indicate that the minimum treatment time with statins able to produce an evident shift of the AQP2 in the cells is 6 hours.

Row | Compound | AQP2 localisation on the apical membrane in kidney sections [1] | effect produced by the lovastatin (AQP2 accumulation on the apical membrane) induced by other statins ([2]; hydrosoluble formulation) | AQP2 shift to the apical membrane ([2]; forskolin 10^−5 M for 20 min, absence of lovastatin)
1 | CC(C)n1c(/C=C/C(O)CC(O)CC(=O)O)c(-c2ccc(F)cc2)c2ccccc21 (stereo not drawn) [fluvastatin] | a significant amount of AQP2 is localised on the apical membrane | induced also | 
2 | C=C[C@@]1(C)CC(=O)[C@]2(O)[C@@]3(C)[C@@H](O)CCC(C)(C)[C@@H]3[C@H](O)[C@H](OC(C)=O)[C@@]2(C)O1 [forskolin] |  |  | shifted by exocytosis to the apical membrane
